Results reported in PubChem BioAssay AID330 (DTP/NCI, 2004).
The list shows only some results of the screen, not a fair sample: it is rich in T/C values a quarter to a half above the control, in often repeated tests (any T/C) and in doses without a T/C. Further doses and runs are listed elsewhere. T/C is the treated group as % of the vehicle group. Some entries give survivors of the animals treated and no T/C: the source files T/C as zero there, which appears to mark a toxic dose or a test without result, not a measured value. Some survivor counts are full or nearly so, which does not show that the dose was tolerated: survival well below the control is almost never listed, so the zero probably covers shortened survival too. Counts of survivors are from the toxicity check (mostly the fifth day) where no day follows; animals may have died later. Schedules are NCI's codes, taken here to give the interval after Q, in days (D) or hours (H), and the number of doses after X. Counts like (3×) give the number of equal values in this list. Some molecules as drawn cover several salts, stereoisomers or complexes of the source; a dose is that of the sample tested. Some entries were tested several times; the values are given in rising order. For survival time, this PubChem deposit counts one and a half times the control or more as active, and values a quarter to a half above the control carry no call in these data; other NCI protocols may use other cut-offs. Some T/C values carry the count of animals alive at the toxicity check (mostly the fifth day); where none is given, no animal had died by that day.

System: P388 leukemia ip, CD2F1 mice, survival T/C
Test: NCI In Vivo Anticancer Drug Screen. Data for tumor model P388 Leukemia (intraperitoneal) in CD2F1 (CDF1) mice
Conditions: T/C endpoint: median survival time, higher T/C = longer survival
[1] = dose: 120.0 mg/kg/injection, schedule: Q01DX005 (ip), vehicle: saline with Tween-80
[2] = dose: 240.0 mg/kg/injection, schedule: Q01DX005 (ip), vehicle: saline with Tween-80
[3] = dose: 200.0 mg/kg/injection, schedule: Q01DX009 (ip), vehicle: saline
[4] = dose: 200.0 mg/kg/injection, schedule: Q01DX005 (ip), vehicle: saline with Tween-80
[5] = dose: 6.0 mg/kg/injection, schedule: Q01DX009 (ip), vehicle: Klucel (hydroxypropylcellulose) (HPC)
[6] = dose: 50.0 mg/kg/injection, schedule: Q01DX009 (ip), vehicle: saline
[7] = dose: 400.0 mg/kg/injection, schedule: Q04DX003 (ip), vehicle: saline with Tween-80

For `N=c1nc(N)nc2c3ccccc3nnn12`, the survivor count [1] was 4 of 6 and the survivor count [2] was 0 of 6.
For `C1CN1c1nc(N2CC2)nc(N2CC2)n1`, the T/C (dose: 0.1 mg/kg/injection, schedule: Q01DX009 (ip), vehicle: saline) was 130 % of control, the T/C (dose: 0.12 mg/kg/injection, schedule: Q01DX009 (ip), vehicle: saline) was 130 % of control and the T/C (dose: 0.25 mg/kg/injection, schedule: Q01DX009 (ip), vehicle: saline) was 145 % of control. For the same compound, the survivor count (dose: 1.0 mg/kg/injection, schedule: Q01DX009 (ip), vehicle: saline) was 6 of 6 and the survivor count (dose: 2.0 mg/kg/injection, schedule: Q01DX009 (ip), vehicle: saline) was 6 of 6.
`O=c1[nH]c2cc(Cl)ccc2nc1/C=C(\O)c1ccccc1O` was tested, and the survivor count [1] was 6 of 6.
In the case of `CCCCN=C1Nc2nc(=NCCCC)nc3c(Br)cc(Br)c(n23)N1`, the survivor count (dose: 7.5 mg/kg/injection, schedule: Q01DX005 (ip), vehicle: Klucel (hydroxypropylcellulose) (HPC)) is reported as 6 of 6, the survivor count (dose: 15.0 mg/kg/injection, schedule: Q01DX005 (ip), vehicle: Klucel (hydroxypropylcellulose) (HPC)) is reported as 6 of 6 (2×) and the survivor count (dose: 30.0 mg/kg/injection, schedule: Q01DX005 (ip), vehicle: Klucel (hydroxypropylcellulose) (HPC)) is reported as 6 of 6. The survivor count (dose: 120.0 mg/kg/injection, schedule: Q01DX005 (ip), vehicle: Klucel (hydroxypropylcellulose) (HPC)) was 6 of 6 and the survivor count (dose: 240.0 mg/kg/injection, schedule: Q01DX005 (ip), vehicle: Klucel (hydroxypropylcellulose) (HPC)) was 0 of 6.
For `O=C(Nc1ccc(Cl)cc1)NC1OC(=O)C(Cl)=C1Cl` (stereo unspecified), the survivor count [3] was 2 of 6.
`CCC1(O)CC(OC2CC(N(C)C)C(OC3CC(O)C(OC4CCC(=O)C(C)O4)C(C)O3)C(C)O2)c2c(cc3c(c2O)C(=O)c2c(O)ccc(O)c2C3=O)C1C(=O)OC` (stereo unspecified) was tested, and the T/C (dose: 0.78 mg/kg/injection, schedule: Q01DX009 (ip), vehicle: saline with Tween-80) was 135 % of control, the survivor count (dose: 3.75 mg/kg/injection, schedule: Q01DX009 (ip), vehicle: saline with Tween-80) was 6 of 6 and the survivor count (dose: 7.5 mg/kg/injection, schedule: Q01DX009 (ip), vehicle: saline with Tween-80) was 2 of 6. For the same compound, the survivor count (dose: 15.0 mg/kg/injection, schedule: Q01DX009 (ip), vehicle: saline with Tween-80) was 0 of 6.
In the case of `CCO/C=N/NC(=O)CNC(=O)C=[N+]=[N-]`, the survivor count (dose: 270.0 mg/kg/injection, schedule: Q01DX009 (ip), vehicle: water) is reported as 5 of 6, the survivor count (dose: 400.0 mg/kg/injection, schedule: Q01DX009 (ip), vehicle: water) is reported as 3 of 6 and the survivor count (dose: 600.0 mg/kg/injection, schedule: Q01DX009 (ip), vehicle: water) is reported as 0 of 6.
For `Cc1ccccc1N=C(CCl)Nc1ccccc1C`, the survivor count [4] was 0 of 5.
In the case of `CC(C)NC(=O)OCc1c(COC(=O)NC(C)C)c(-c2ccc(Cl)c(Cl)c2)n2c1C[C@@H](OC(=O)CCC(=O)O)C2` (tested in a mixture with another compound), the T/C (dose: 100.0 mg/kg/injection, schedule: Q01DX005 (ip), vehicle: water) is reported as 125 and 128 % of control, the survivor count (dose: 200.0 mg/kg/injection, schedule: Q01DX005 (ip), vehicle: water) is reported as 0 of 6 and 3 of 6 and the survivor count (dose: 400.0 mg/kg/injection, schedule: Q04DX002 (ip), vehicle: water) is reported as 0 of 6.
In the case of `CS(=O)(=O)OCC(=O)NCC(O)CNC(=O)COS(C)(=O)=O`, the T/C (dose: 100.0 mg/kg/injection, schedule: Q01DX009 (ip), vehicle: saline with Tween-80) is reported as 141 % of control, the T/C (dose: 100.0 mg/kg/injection, schedule: Q04DX003 (ip), vehicle: saline with Tween-80) is reported as 127 % of control and the T/C (dose: 264.0 mg/kg/injection, schedule: Q04DX003 (ip), vehicle: saline with Tween-80) is reported as 129 % of control. For the same compound, the survivor count (dose: 400.0 mg/kg/injection, schedule: Q01DX009 (ip), vehicle: saline with Tween-80) was 5 of 6 and the survivor count (dose: 600.0 mg/kg/injection, schedule: Q04DX003 (ip), vehicle: saline with Tween-80) was 6 of 6.
For `Cc1cc(N=Nc2ccc(NC(=O)c3ccc(N)cc3)cc2C)ccc1N=Nc1ccc2cc(S(=O)(=O)O)cc(S(=O)(=O)O)c2c1`, the survivor count (dose: 400.0 mg/kg/injection, schedule: Q01DX005 (ip), vehicle: suspension in saline) was 0 of 6.
With `CC1C(c2ccccc2)NC(c2ccccc2)C(C)C1(O)c1ccccc1` (stereo unspecified) the survivor count [4] was 0 of 6.
`CCc1c2cc3c(cc2cc2c4cc5c(cc4cc[n+]12)OCO5)OCO3` (tested in a mixture with another compound) was tested, and the T/C (dose: 1.5 mg/kg/injection, schedule: Q01DX009 (ip), vehicle: Klucel (hydroxypropylcellulose) (HPC)) was 138 and 140 % of control, the T/C (dose: 2.0 mg/kg/injection, schedule: Q01DX009 (ip), vehicle: Klucel (hydroxypropylcellulose) (HPC)) was 126, 128, 140 % of control and the T/C (dose: 3.0 mg/kg/injection, schedule: Q01DX009 (ip), vehicle: Klucel (hydroxypropylcellulose) (HPC)) was 135, 138, 140 [5 of 6 alive], 148 % of control. For the same compound, the T/C (dose: 4.0 mg/kg/injection, schedule: Q01DX009 (ip), vehicle: Klucel (hydroxypropylcellulose) (HPC)) was 135 and 148 % of control (2×), the T/C (dose: 5.0 mg/kg/injection, schedule: Q01DX009 (ip), vehicle: Klucel (hydroxypropylcellulose) (HPC)) was 148 % of control and the T/C [5] was 148 % of control. For the same compound, the survivor count [5] was 3 of 6 and 6 of 6, the survivor count (dose: 10.0 mg/kg/injection, schedule: Q01DX009 (ip), vehicle: Klucel (hydroxypropylcellulose) (HPC)) was 0 of 6 and the survivor count (dose: 12.0 mg/kg/injection, schedule: Q01DX009 (ip), vehicle: Klucel (hydroxypropylcellulose) (HPC)) was 0 of 6. The survivor count (dose: 15.0 mg/kg/injection, schedule: Q01DX009 (ip), vehicle: Klucel (hydroxypropylcellulose) (HPC)) was 0 of 6, the survivor count (dose: 20.0 mg/kg/injection, schedule: Q01DX009 (ip), vehicle: Klucel (hydroxypropylcellulose) (HPC)) was 0 of 6 and the survivor count (dose: 30.0 mg/kg/injection, schedule: Q01DX009 (ip), vehicle: Klucel (hydroxypropylcellulose) (HPC)) was 0 of 6. For the same compound, the survivor count (dose: 40.0 mg/kg/injection, schedule: Q01DX009 (ip), vehicle: Klucel (hydroxypropylcellulose) (HPC)) was 0 of 6.
`Oc1ccc[nH]c1=S` was tested, and the T/C (dose: 25.0 mg/kg/injection, schedule: Q01DX009 (ip), vehicle: saline) was 98, 99, 100, 104 % of control, the T/C [6] was 96, 99, 101 % of control (2×) and the T/C (dose: 100.0 mg/kg/injection, schedule: Q01DX009 (ip), vehicle: saline) was 98, 100, 105, 109 % of control. For the same compound, the T/C [3] was 86, 127, 130, 139 % of control and the survivor count (dose: 400.0 mg/kg/injection, schedule: Q01DX009 (ip), vehicle: saline) was 0 of 6.
With `COC(/C=N/O)c1ccccc1` (stereo unspecified) the survivor count (dose: 25.0 mg/kg/injection, schedule: Q04DX003 (ip), vehicle: saline with Tween-80) was 6 of 6, the survivor count (dose: 200.0 mg/kg/injection, schedule: Q04DX003 (ip), vehicle: saline with Tween-80) was 5 of 6 and 6 of 6 and the survivor count [7] was 3 of 6. The survivor count (dose: 400.0 mg/kg/injection, schedule: Q04DX003 (ip), vehicle: saline) was 1 of 6.
`CN(C)c1ccc2nc3ccc(=O)cc-3sc2c1` was tested, and the T/C (dose: 50.0 mg/kg/injection, schedule: Q01DX009 (ip), vehicle: saline with Tween-80) was 129 % of control and the T/C (dose: 200.0 mg/kg/injection, schedule: Q01DX009 (ip), vehicle: saline with Tween-80) was 136 % of control.
`Clc1ccc2[nH]c3c(c2c1)CCCC3` was tested, and the survivor count [7] was 3 of 6.
For `COc1ccc(OC)c(/C=C2/C(=O)ON=C2C)c1`, the survivor count [2] was 4 of 6.
In the case of `CCOC(=O)CN=C(c1ccccc1)c1ccccc1`, the survivor count [6] is reported as 6 of 6 and the survivor count [3] is reported as 6 of 6.
In the case of `N#CCC(=O)CCCCCCCO`, the survivor count (dose: 200.0 mg/kg/injection, schedule: Q01DX001 (ip), vehicle: saline) is reported as 6 of 6.
`O=C1c2ccccc2C(=O)N1Cc1ccccc1[N+](=O)[O-]` was tested, and the survivor count [6] was 6 of 6.
`O=c1[nH]cc(CS)c(=O)[nH]1` was tested, and the survivor count [3] was 5 of 6.
With `O=C1CN(CCN2CCCCC2)CC(=O)N2CCCCN12` the survivor count [4] was 2 of 5.
For `COc1cc(C(=O)C(CN(C)C)CN(C)C)cc(OC)c1OC`, the survivor count (dose: 100.0 mg/kg/injection, schedule: Q01DX005 (ip), vehicle: saline) was 0 of 5 and the survivor count (dose: 200.0 mg/kg/injection, schedule: Q01DX005 (ip), vehicle: saline) was 0 of 5.
